Measured values published in publication PMC4578769, “Development of a Fluorescence-based Trypanosoma cruzi CYP51 Inhibition Assay for Effective Compound Triaging in Drug Discovery Programmes for Chagas Disease” (PLoS Neglected Tropical Diseases, 2015).

Sequences of proteins named here, by UniProt entry; tags and fusion partners are left off. A change or cut given only in a name is not applied to a line headed by its entry.
UniProt Q7Z1V1: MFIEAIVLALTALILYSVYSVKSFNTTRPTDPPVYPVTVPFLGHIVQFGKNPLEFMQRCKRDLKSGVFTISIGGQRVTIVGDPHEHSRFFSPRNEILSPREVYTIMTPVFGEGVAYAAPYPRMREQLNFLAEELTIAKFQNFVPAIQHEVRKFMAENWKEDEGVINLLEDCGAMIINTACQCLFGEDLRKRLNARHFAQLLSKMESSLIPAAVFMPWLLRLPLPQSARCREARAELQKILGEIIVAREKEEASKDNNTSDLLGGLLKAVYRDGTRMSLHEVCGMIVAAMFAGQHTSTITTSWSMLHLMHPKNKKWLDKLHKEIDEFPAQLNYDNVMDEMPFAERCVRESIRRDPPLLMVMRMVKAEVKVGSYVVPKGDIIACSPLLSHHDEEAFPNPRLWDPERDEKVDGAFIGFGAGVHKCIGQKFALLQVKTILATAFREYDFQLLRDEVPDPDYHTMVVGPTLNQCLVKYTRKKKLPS

Target: T1, T. cruzi CYP51 (Tulahuen strain) (Trypanosoma cruzi, UniProt Q7Z1V1)
T1 construct: ompA leader (N); host or cells: E. coli JM109 (membrane fraction, bactosomes)
Assay: biochemical
Type: biochemical
Method: E. coli membrane fractions containing the T. cruzi CYP51 (Tulahuen strain) (Bactosomes) were provided by Cypex Ltd.
For each concentration of test compound the rate of fluorescence units per minute was calculated as a percentage of the average rate of the solvent only control wells.
The percentage of solvent control values was then plotted against the concentration range. Using the following 4 parameter fit equation, an IC50 value can be determined.
y=Range/1+(x/IC50)^s+Background
With kinetic parameters established, a microtitre-based assay to measure inhibition of recombinantly expressed T. cruzi CYP51 by test compounds was then implemented. […] Incubations containing 37 pmoles/mL of T. cruzi CYP51 in bactosomes, 100 μM BOMCC, 10, 3.3, 1.0, 0.33, 0.1, 0.033 or 0.01 μM test compound (2% v/v solvent) in 50 mM potassium phosphate buffer (pH 7.4), were pre-incubated at 37°C for 5 minutes. Upon addition of NADPH regenerating system (7.8 mg [[…]] glucose-6-phosphate, 1.7 mg [[…]] NADP, 6 units/mL glucose-6-phosphate dehydrogenase in 2% w/v sodium bicarbonate buffer) production of fluorescent metabolite CHC was measured (Exc 410 nm, Em 460 nm) at 1 minute intervals over a 10 minute period. Rates of metabolite production per minute were compared to uninhibited controls and plotted against test compound concentration to obtain an IC50.

## Cc1cc(NS(=O)(=O)c2ccc(N)cc2)no1 [Sulphamethoxazole]
  IC50: > 8 µM
Known CYP450 inhibitors
  inhibition of T. cruzi CYP51 (in words): did not appear to inhibit
